Test results from PubChem BioAssay AID493014 (National Center for Advancing Translational Sciences (NCATS), 2011).
The whole screen tested about 340,000 compounds, of which about 170 (0.05%) were called active. The inconclusive results got no clear call from the source; some entries with a clear call stand among them for comparison. Calls come from the whole dose curve; as a rule, active = well fitted inhibition curve with a large enough effect in the signal ratio, with a control signal flat (not every such curve was filed as active); inconclusive = small, poorly fitted or top-dose-only effect, or effect the other way, or a change in a side signal; inactive = flat fitted curve, though single readings scatter; the % refers to the signal ratio. Potencies beside an inconclusive call are fits to weak or partial responses and may not hold up.

Assay: qHTS Assay to Find Inhibitors of Chronic Active B-Cell Receptor Signaling;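 for activity change, negative = inhibition: plate controls were basal doxycycline-induced cells for no effect and cells given 10 µM MG132 for full effect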
Conditions: ABC-DLBCL IkBa-CBG/CBR reporter, luminescence ratio (green luciferase fused to IkBa over red control in TMD8 lymphoma cells), 4 h; activity change, negative = inhibition: at 46.1 µM (top of the series) unless noted
Method in brief: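 Doxycycline induced both beetle luciferases in TMD8 lymphoma cells; IKK-driven degradation limits the IkappaBalpha-fused green signal, while red luminescence normalises for cell number and nonspecific effects. Compounds tested up to 46 uM, 4 hrs.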
Potency is the fitted concentration of half-maximal effect.

| SMILES | activity change, negative = inhibition | Potency |
| --- | --- | --- |
| COc1ccccc1NS(=O)(=O)c1cc(NC(=O)c2ccncc2)ccc1N1CCOCC1 | inconclusive: -7.1% | – |
| COc1ccccc1N/C(N)=N/c1nc(C(F)(F)F)cc(=O)[nH]1 | inconclusive: 7.15% | – |
| COC(=O)/C(C#N)=C/c1c(N2CCCCCC2)nc2ccccn2c1=O | inconclusive: 1.01% | – |
| CCOCCn1c(CN2CCN(C)CC2)nc2c1c(=O)n(C)c(=O)n2C | inactive | – |
| COc1ccc(NC(=S)N2CCN(Cc3ccccc3)CC2)c(OC)c1 | inactive | – |
| Cc1c(O)c(=O)ccn1C | inactive | – |
| C/C(CC(=O)Nc1cccc(F)c1)=N\NC(=O)C(=O)NC1CCCCC1 | inconclusive: -16.5% | – |
| O=C(Cc1cccs1)Nc1nc2c(ccc3ccccc32)s1 | inconclusive: 8.02% | – |
| COC(=O)c1cccc(-c2ccc(C(c3c(C)[nH][nH]c3=O)c3c(C)[nH][nH]c3=O)o2)c1 | inactive | – |
| CS/C(=C\[N+](=O)[O-])Nc1ccc(C)cc1 | – | inconclusive: 22.4 µM [falling, single point] |
| Cc1ccc(S(=O)(=O)CCC(=O)Nc2nc(-c3cccnc3)cs2)cc1 | inconclusive: 6.43% | – |
| Cc1ccc(C(=O)NC(=S)N2CCN(c3ccc([N+](=O)[O-])cc3)CC2)cc1 | inconclusive: 11.4% | – |
| CCOC(=O)/C(C#N)=C/C=C1\C=Cc2ccccc2N1CC | inconclusive: 3.44% | – |
| O=C(CNCCC1=CCCCC1)Nc1ccc(N2CCCCCC2)cc1 | inactive | – |
| C/C(O)=C(\C#N)c1nc2ccccc2[nH]1 | inconclusive: 7.97% | – |
| Cn1cccc1/C=C1/SC(=S)N(CC(=O)O)C1=O | inactive | – |
| N#CC1=C(N)Nc2nc3ccccc3n2C1c1ccc(Cl)cc1 (stereo not drawn) | inconclusive: -59.5% | – |
| Cc1csc(NC(=O)c2cccc(Cn3nc(C)c(Br)c3C)c2)n1 | inconclusive: -0.748% | – |
| CCN(Cc1ccncc1)C(=O)c1cc(COc2c(C)cccc2C)on1 | inconclusive: -0.196% | – |
| CCCNC(=O)CS(=O)Cc1nc(-c2ccc(OC)cc2)oc1C (stereo not drawn) | inconclusive: 4.75% | – |
| CCOC(=O)c1sc(NC(=S)NC(=O)c2ccco2)nc1C | inconclusive: 14.7% | – |

| SMILES | activity change, negative = inhibition | Potency |
| --- | --- | --- |
| COc1cccc2oc3ccc(C#Cc4ccccn4)cc3c(=O)c12 | – | inconclusive: 0.891 µM [rising, full curve, poor fit] |
| CC(=O)c1cccc(NC(=O)c2cnn3ccccc23)c1 | inconclusive: -20.2% | – |
| CC(C)[C@H](NC(N)=O)C(=O)Nc1ccc2c(c1)CCC2 | inconclusive: 3.74% | – |
| CC1CN(C(=O)COc2ccc3ccccc3c2)CC(C)O1 (stereo not drawn) | inconclusive: 0.985% | – |
| CCCCNC(=S)N/N=C/c1ccccc1F | – | inconclusive: 29.1 µM [falling, single point] |
| O=C(NN=C1CCCC1)c1ccc(Cl)cc1 | – | inconclusive: 35.5 µM [cytotoxic, partial curve] |
| O=C(Nc1ccc(NC(=O)c2cccs2)cn1)c1ccccc1 | – | inconclusive: 15.8 µM [falling, single point] |
| Cc1ccc(OCc2cc(C(=O)N3CCN(C4CCCCC4)CC3)no2)cc1C | inactive | – |
| CCn1c(=O)c2c(nc3n2CCN3c2ccc(OC)cc2)n(C)c1=O | inactive | – |
| CCn1c(/N=C/c2c[nH]c3ccccc23)nc2ccccc21 | – | inconclusive: 35.5 µM [falling, partial curve, poor fit] |
| COc1cccc(C(=O)NCc2cn3ccsc3n2)c1 | inconclusive: 7.32% | – |
| Cc1cccc(N2CCN(CC(O)COc3ccc(Cl)cc3)CC2)c1 (stereo not drawn) | inconclusive: -2.76% | – |
| CCN(CC)CCN1c2ccccc2Sc2ccc3ccccc3c21 | – | inconclusive: 22.4 µM [falling, single point] |
| CCC(=O)Nc1c(S(=O)(=O)c2ccccc2)c2nc3ccccc3nc2n1C(C)c1ccccc1 (stereo not drawn) | inconclusive: -0.592% | – |
| Cc1ccc(SCC(=O)OCC(=O)NCCC2=CCCCC2)cc1 | inconclusive: 2.49% | – |
| COC(=O)C1=C(C)NC(=O)CC1c1cc(Br)ccc1F (stereo not drawn) | inconclusive: 4.88% | – |
| CCOc1ccc(CCNC(=O)c2cc(=O)[nH]c3ccc(S(=O)(=O)N4CCCCC4C)cc23)cc1OCC (stereo not drawn) | – | inconclusive: 15.8 µM [falling, single point] |
| CCOc1ccc(-c2c(C(=O)N/N=C/c3ccco3)nnn2-c2nonc2N)cc1 | inactive | – |
| O=C(Cc1ccc(Cl)cc1)Nc1ccc(Br)cc1 | inconclusive: 17.8% | – |
| O=C(COC(=O)c1ccc(O)cc1)c1ccc(S(=O)(=O)N2CCCCC2)cc1 | inactive | – |
| O=C(NCCc1ccccc1)C(c1cccs1)N(C(=O)CCl)c1ccc(Cl)cc1 (stereo not drawn) | inconclusive: -10.3% | – |

| SMILES | activity change, negative = inhibition | Potency |
| --- | --- | --- |
| O=C(Nc1cc(-c2nc3ncccc3o2)ccc1Cl)c1ccc2c(c1)OCO2 | inconclusive: -1.44% | – |
| CCOC(=O)CCCNC(=O)COC(=O)c1cccc(C)c1O | – | inconclusive: 17.8 µM [falling, single point] |
| N#Cc1cn(Cc2ccncc2)c(=O)[nH]c1=O | inconclusive: 12.8% | – |
| CCCCCn1c(CNC(=O)COC)nc2ccccc21 | inconclusive: 0.798% | – |
| COc1ccc(-c2nnc(NC(=O)c3ccc(S(=O)(=O)N4CCc5ccccc5C4)cc3)o2)cc1 | inactive | – |
| Cc1ccc(S(=O)(=O)Cc2nnnn2-c2ccccc2)cc1 | inconclusive: 1.12% | – |
| COc1ccc(CNc2oc(COc3ccccc3Cl)nc2C#N)cc1 | – | inconclusive: 29.1 µM [falling, single point] |
| CCC(C(=O)OC)n1c(-c2ccccc2)nc2ccccc2c1=O (stereo not drawn) | – | inconclusive: 25.1 µM [rising, partial curve, poor fit] |
| CCOc1ccc(NS(=O)(=O)c2ccc(OCC)c3ncccc23)cc1 | inactive | – |
| COc1ccccc1NC(=O)Cn1c(CN2CCCCC2)nc2ccccc2c1=O | inconclusive: -5.9% | – |
| COc1ccc(NC(=O)CN(C)S(=O)(=O)c2cccc3nsnc23)cc1OC | inconclusive: 3.51% | – |
| Cc1ccc(OCCn2c(=O)sc3ccccc32)cc1 | inactive | – |
| COCCN1CCN(C(=O)c2ccc3oc(CCCc4ccccc4)nc3c2)CC1 | inactive | – |
| Cc1[nH]c2ccccc2c1C(=O)COC(=O)c1cccc(S(=O)(=O)N2CCCCC2)c1 | inconclusive: -6.18% | – |
| Oc1oc(-c2ccccc2)nc1C=Nc1ccccc1 | – | inconclusive: 20 µM [falling, partial curve] |
| Cc1ccc(O)c(NC(=O)c2noc(C(C)C)c2[N+](=O)[O-])c1 | – | inconclusive: 0.501 µM [rising, full curve, poor fit] |
| COc1ccc(NC(=O)CSC2=Nc3ccccc3C3=NC(CC(=O)NCCc4ccccc4)C(=O)N23)cc1 (stereo not drawn) | inactive | – |
| Cc1cccc(-c2nc(CS(=O)CC(=O)N3CCCCC3)c(C)o2)c1 (stereo not drawn) | – | inconclusive: 3.66 µM [rising, full curve, poor fit] |
| COc1ccc(OC)c(-c2cc(-c3cccnc3)nc(N)c2C#N)c1 | inconclusive: 1.35% | – |
| Cc1ccccc1-n1nc2c(c1NC(=O)CCCl)CSC2 | inconclusive: 1.85% | – |
| O=C(CSc1nc2cc(Cl)ccc2s1)c1cc2ccccc2o1 | inconclusive: -28% | – |

5 entries from above, as comma-separated lines:
SMILES,"activity change, negative = inhibition",Potency
CC1CN(C(=O)COc2ccc3ccccc3c2)CC(C)O1 (stereo not drawn),inconclusive: 0.985%,–
O=C(COC(=O)c1ccc(O)cc1)c1ccc(S(=O)(=O)N2CCCCC2)cc1,inactive,–
O=C(Nc1cc(-c2nc3ncccc3o2)ccc1Cl)c1ccc2c(c1)OCO2,inconclusive: -1.44%,–
CCC(C(=O)OC)n1c(-c2ccccc2)nc2ccccc2c1=O (stereo not drawn),–,"inconclusive: 25.1 µM [rising, partial curve, poor fit]"
CCOc1ccc(NS(=O)(=O)c2ccc(OCC)c3ncccc23)cc1,inactive,–

More results:

| SMILES | activity change, negative = inhibition | Potency |
| --- | --- | --- |
| CCc1nnc2c3cnn(-c4ccccc4)c3ncn12 | – | inconclusive: 29.1 µM [falling, single point] |
| Cc1ccc(-n2nnnc2SCC(=O)Nc2cccnc2Cl)cc1 | inactive | – |
| COC(=O)c1scc(C)c1S(=O)(=O)Nc1ccc(C)cc1 | inactive | – |
| O=C1c2ccccc2N2C(=O)c3ccccc3C2N1Cc1ccccc1 (stereo not drawn) | inconclusive: 8.45% | – |
| CCCCN1C=CC(=C2C(=O)c3ccccc3C2=O)C=C1 | – | inconclusive: 3.55 µM [rising, full curve, poor fit] |
| CC(CNC(=O)CCn1ccc2cc(S(=O)(=O)N3CCCC3)ccc21)c1ccccc1 (stereo not drawn) | inconclusive: -10.1% | – |
| CCOc1ccc(C(=O)COC(=O)c2cc(=O)[nH]c3ccccc23)cc1 | inactive | – |
| COc1ccc(/C=N/NC(=S)Nc2ccccc2[N+](=O)[O-])cc1O | – | inconclusive: 18.4 µM [falling, partial curve, poor fit] |
| CCN(c1ccccc1)S(=O)(=O)c1ccc(C(=O)Nc2nccs2)cc1 | – | inconclusive: 8.2 µM [rising, partial curve] |
| CC(C)(C)NC(=O)Nc1ccc(Br)cc1 | inconclusive: 22.2% | – |
| CC(C)CC(=O)N=Nc1c(O)[nH]c2ccccc12 | – | inconclusive: 35.5 µM [falling, single point] |
| COc1ccc(C(=O)Nc2ccccn2)cc1S(=O)(=O)N1CCOCC1 | inconclusive: 10.3% | – |
| O=C(O)c1cc(/C=N\O)ccc1OCc1ccccc1 | – | inconclusive: 14.6 µM [falling, partial curve] |
| COc1ccc(Nc2nc(N)nc(CSc3nc(C)cc(C)n3)n2)cc1 | inconclusive: -12.8% | – |
| O=C(CSCc1ccc(Cl)cc1Cl)Nc1nccs1 | inconclusive: 5.4% | – |
| Nc1nc(NC(=O)c2ccc(F)cc2)ns1 | – | inconclusive: 13 µM [falling, partial curve] |
| C[C@H]1CN([C@@H](C)CO)C(=O)c2cccc(NS(=O)(=O)c3ccc(F)cc3)c2O[C@H]1CN(C)Cc1ccc(Cl)c(Cl)c1 | inconclusive: -5.27% | – |
| O=C(Nc1cccc(Cl)c1)N(CCN1CCOCC1)Cc1ccccc1F | – | inconclusive: 1.16 µM [rising, full curve, poor fit] |
| CCc1ccc(-c2cc(C)no2)cc1S(=O)(=O)N1CCN(c2ccccn2)CC1 | inactive | – |
| CC1=CC(C)(C)Nc2ccc(OC(=O)CN3C(=O)C4CCCCC4C3=O)cc21 (stereo not drawn) | inconclusive: -1.31% | – |
